According to the supplement of paper PMC10689618:
The list shows a part of the results. Single values are uncertain, as repeats are few or missing.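 Labelled rat cortical synaptosomes were engulfed by primary human fetal astrocytes. Engulfment equaled a red/green ratio, corrected for calcein live-cell signal and normalized to the plate median. Compounds were toxic when calcein dropped over 30%, and reduced phagocytosis when below 70% of the median above 5 µM.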

Legend:
Human fetal astrocytes [1] = assay: loss of total cells relative to no-compound high-control median (toxicity); higher = more toxic (fewer cells); settings: 24 h
Human fetal astrocytes [2] = assay: synaptosome phagocytosis (pHrodo/calcein intensity ratio) relative to plate median of data wells; higher = more phagocytosis; settings: 24 h

For `CN1CCC[C@@H]1CCO[C@](C)(c1ccccc1)c1ccc(Cl)cc1`, the “loss of total cells” value (Human fetal astrocytes [1]; 1.39 µM) was 8.6%, the “loss of total cells” value (Human fetal astrocytes [1]; 2.78 µM) was -3.7% and the “loss of total cells” value (Human fetal astrocytes [1]; 5.56 µM) was -6.3%. The “loss of total cells” value (Human fetal astrocytes [1]; 11.11 µM) was 13%, the “loss of total cells” value (Human fetal astrocytes [1]; 22.22 µM) was 10% and the synaptosome phagocytosis (Human fetal astrocytes [2]; 1.39 µM) was 85%. The synaptosome phagocytosis (Human fetal astrocytes [2]; 2.78 µM) was 80.7%, the synaptosome phagocytosis (Human fetal astrocytes [2]; 5.56 µM) was 94.5% and the synaptosome phagocytosis (Human fetal astrocytes [2]; 11.11 µM) was 49.8%. It also gave a synaptosome phagocytosis (Human fetal astrocytes [2]; 22.22 µM) of 37.2%.

With `CO/N=C(\C(=O)N[C@@H]1C(=O)N2C(C(=O)OC(C)OC(C)=O)=C(COC(N)=O)CS[C@H]12)c1ccco1` (stereo not given in full) the “loss of total cells” value (Human fetal astrocytes [1]; 1.39 µM) was 27.4%, the “loss of total cells” value (Human fetal astrocytes [1]; 2.78 µM) was -31.7% and the “loss of total cells” value (Human fetal astrocytes [1]; 5.56 µM) was 6.8%. The “loss of total cells” value (Human fetal astrocytes [1]; 11.11 µM) was 37%, the “loss of total cells” value (Human fetal astrocytes [1]; 22.22 µM) was 0.9% and the synaptosome phagocytosis (Human fetal astrocytes [2]; 1.39 µM) was 130%. The synaptosome phagocytosis (Human fetal astrocytes [2]; 2.78 µM) was 130%, the synaptosome phagocytosis (Human fetal astrocytes [2]; 5.56 µM) was 126% and the synaptosome phagocytosis (Human fetal astrocytes [2]; 11.11 µM) was 129%. The synaptosome phagocytosis (Human fetal astrocytes [2]; 22.22 µM) was 127%.

With `C[C@H](CCC(=O)O)[C@H]1CC[C@H]2[C@@H]3[C@@H](O)C[C@@H]4C[C@H](O)CC[C@]4(C)[C@H]3CC[C@]12C` the “loss of total cells” value (Human fetal astrocytes [1]; 1.39 µM) was -4.5%, the “loss of total cells” value (Human fetal astrocytes [1]; 2.78 µM) was -11.9% and the “loss of total cells” value (Human fetal astrocytes [1]; 5.56 µM) was -9.8%. The “loss of total cells” value (Human fetal astrocytes [1]; 11.11 µM) was 14.7%, the “loss of total cells” value (Human fetal astrocytes [1]; 22.22 µM) was 36.8% and the synaptosome phagocytosis (Human fetal astrocytes [2]; 1.39 µM) was 72.1%. For the same compound, the synaptosome phagocytosis (Human fetal astrocytes [2]; 2.78 µM) was 98.2%, the synaptosome phagocytosis (Human fetal astrocytes [2]; 5.56 µM) was 99.2% and the synaptosome phagocytosis (Human fetal astrocytes [2]; 11.11 µM) was 120%. The synaptosome phagocytosis (Human fetal astrocytes [2]; 22.22 µM) was 112%.

In the case of `COc1cc(O)cc(O)c1C(C)=O`, the “loss of total cells” value (Human fetal astrocytes [1]; 1.39 µM) is reported as 19.1%, the “loss of total cells” value (Human fetal astrocytes [1]; 2.78 µM) is reported as 6.1% and the “loss of total cells” value (Human fetal astrocytes [1]; 5.56 µM) is reported as 21.7%. For the same compound, the “loss of total cells” value (Human fetal astrocytes [1]; 11.11 µM) was 2.9%, the “loss of total cells” value (Human fetal astrocytes [1]; 22.22 µM) was 18.2% and the synaptosome phagocytosis (Human fetal astrocytes [2]; 1.39 µM) was 154%. For the same compound, the synaptosome phagocytosis (Human fetal astrocytes [2]; 2.78 µM) was 117%, the synaptosome phagocytosis (Human fetal astrocytes [2]; 5.56 µM) was 125% and the synaptosome phagocytosis (Human fetal astrocytes [2]; 11.11 µM) was 129%. It also gave a synaptosome phagocytosis (Human fetal astrocytes [2]; 22.22 µM) of 136%.

`COC(=O)c1c(OC)cc2c(c1C)Oc1c(Cl)c(O)c(Cl)c(C)c1C(=O)O2` was tested, and the “loss of total cells” value (Human fetal astrocytes [1]; 1.39 µM) was -8.3%, the “loss of total cells” value (Human fetal astrocytes [1]; 2.78 µM) was 0.7% and the “loss of total cells” value (Human fetal astrocytes [1]; 5.56 µM) was 13%. For the same compound, the “loss of total cells” value (Human fetal astrocytes [1]; 11.11 µM) was 18.1%, the “loss of total cells” value (Human fetal astrocytes [1]; 22.22 µM) was 1.1% and the synaptosome phagocytosis (Human fetal astrocytes [2]; 1.39 µM) was 84.5%. It also gave a synaptosome phagocytosis (Human fetal astrocytes [2]; 2.78 µM) of 102%, a synaptosome phagocytosis (Human fetal astrocytes [2]; 5.56 µM) of 141% and a synaptosome phagocytosis (Human fetal astrocytes [2]; 11.11 µM) of 103%. The synaptosome phagocytosis (Human fetal astrocytes [2]; 22.22 µM) was 64%.

`Clc1ccccc1CN1CCc2sccc2C1` was tested, and the “loss of total cells” value (Human fetal astrocytes [1]; 1.39 µM) was -26.6%, the “loss of total cells” value (Human fetal astrocytes [1]; 2.78 µM) was -7.9% and the “loss of total cells” value (Human fetal astrocytes [1]; 5.56 µM) was 6.2%. For the same compound, the “loss of total cells” value (Human fetal astrocytes [1]; 11.11 µM) was 37%, the “loss of total cells” value (Human fetal astrocytes [1]; 22.22 µM) was 4.7% and the synaptosome phagocytosis (Human fetal astrocytes [2]; 1.39 µM) was 79.7%. The synaptosome phagocytosis (Human fetal astrocytes [2]; 2.78 µM) was 93%, the synaptosome phagocytosis (Human fetal astrocytes [2]; 5.56 µM) was 110% and the synaptosome phagocytosis (Human fetal astrocytes [2]; 11.11 µM) was 110%. For the same compound, the synaptosome phagocytosis (Human fetal astrocytes [2]; 22.22 µM) was 94.7%.

With `O=C(O)CCC(=O)Nc1ccc(S(=O)(=O)Nc2nccs2)cc1` the “loss of total cells” value (Human fetal astrocytes [1]; 1.39 µM) was 0.8%, the “loss of total cells” value (Human fetal astrocytes [1]; 2.78 µM) was -0.9% and the “loss of total cells” value (Human fetal astrocytes [1]; 5.56 µM) was 2.1%. The “loss of total cells” value (Human fetal astrocytes [1]; 11.11 µM) was -5.5%, the “loss of total cells” value (Human fetal astrocytes [1]; 22.22 µM) was 16.4% and the synaptosome phagocytosis (Human fetal astrocytes [2]; 1.39 µM) was 82.8%. For the same compound, the synaptosome phagocytosis (Human fetal astrocytes [2]; 2.78 µM) was 119%, the synaptosome phagocytosis (Human fetal astrocytes [2]; 5.56 µM) was 114% and the synaptosome phagocytosis (Human fetal astrocytes [2]; 11.11 µM) was 113%. The synaptosome phagocytosis (Human fetal astrocytes [2]; 22.22 µM) was 126%.

`CC(=O)c1ccc[nH]1` was tested, and the “loss of total cells” value (Human fetal astrocytes [1]; 1.39 µM) was -21.4%, the “loss of total cells” value (Human fetal astrocytes [1]; 2.78 µM) was 4.7% and the “loss of total cells” value (Human fetal astrocytes [1]; 5.56 µM) was -15.3%. The “loss of total cells” value (Human fetal astrocytes [1]; 11.11 µM) was 0%, the “loss of total cells” value (Human fetal astrocytes [1]; 22.22 µM) was -13% and the synaptosome phagocytosis (Human fetal astrocytes [2]; 1.39 µM) was 120%. The synaptosome phagocytosis (Human fetal astrocytes [2]; 2.78 µM) was 149%, the synaptosome phagocytosis (Human fetal astrocytes [2]; 5.56 µM) was 115% and the synaptosome phagocytosis (Human fetal astrocytes [2]; 11.11 µM) was 111%. It also gave a synaptosome phagocytosis (Human fetal astrocytes [2]; 22.22 µM) of 140%.

With `CC(=O)S[C@@H]1CC2=CC(=O)CC[C@]2(C)[C@H]2CC[C@@]3(C)[C@@H](CC[C@@]34CCC(=O)O4)[C@H]12` the “loss of total cells” value (Human fetal astrocytes [1]; 1.39 µM) was -6.2%, the “loss of total cells” value (Human fetal astrocytes [1]; 2.78 µM) was -18.6% and the “loss of total cells” value (Human fetal astrocytes [1]; 5.56 µM) was -13.2%. The “loss of total cells” value (Human fetal astrocytes [1]; 11.11 µM) was 9.5%, the “loss of total cells” value (Human fetal astrocytes [1]; 22.22 µM) was -4% and the synaptosome phagocytosis (Human fetal astrocytes [2]; 1.39 µM) was 92.1%. The synaptosome phagocytosis (Human fetal astrocytes [2]; 2.78 µM) was 118%, the synaptosome phagocytosis (Human fetal astrocytes [2]; 5.56 µM) was 90% and the synaptosome phagocytosis (Human fetal astrocytes [2]; 11.11 µM) was 92.6%. The synaptosome phagocytosis (Human fetal astrocytes [2]; 22.22 µM) was 81.7%.
